# Reference: PubChem BioAssay AID602203 (INSERM, 2012)
# Assay: 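Genes whose knock-down alters cisplatin killing of lung cancer cells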 (follow-up of hits)
# Cell system: human A549 lung cancer cells
# Knock-down reagent: siRNA pair against human genes
# Challenge: cisplatin at a dose killing half of control-siRNA cells, given 48 h after transfection
# Detection: 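Cisplatin at a dose killing 50% of control cells, 48 h post-transfection; each siRNA +1 protective, -1 sensitizing, 0 if toxic (LDH) or antiproliferative (WST-1); per-gene sum and mean death change versus control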
# Reading the numbers: summed siRNA score for cisplatin death: higher = more siRNAs reduced cisplatin-induced cell death; change in cisplatin death versus control: higher = fewer cells died than in control
# Call rule: In these data the active calls have summed siRNA score for cisplatin death at about -3 or lower, or at about 3 or higher
# The deposit covers 999 reagents; below is a random part of them. 85 of all reagents (8.5%) count as active. 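Unclear how single-siRNA scores of -1, 0 or +1 give the printed -4 to 4 range; calls lie near -3 or 3 and beyond.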 Not stated in the record: the amount of reagent, the time to read-out, the dose of the treatment.
target,summed siRNA score for cisplatin death,change in cisplatin death versus control (percentage points),call
DNM1DN11-7 (GeneID 440293),0,,inactive
COX10 (GeneID 1352),1,,inactive
ATOX1 (GeneID 475),0,,inactive
TUSC2 (GeneID 11334),0,,inactive
GUCA1A (GeneID 2978),-3,-6.71,active
OTOP3 (GeneID 347741),0,,inactive
WNT6 (GeneID 7475),-1,,inactive
NOTCH3 (GeneID 4854),0,,inactive
RBBP8 (GeneID 5932),0,,inactive
ACHE (GeneID 43),-3,-9.41,active
BAIAP3 (GeneID 8938),-3,-2.3,active
LOC390386,1,,inactive
SIGLEC7 (GeneID 27036),-1,,inactive
LOC392164,0,,inactive
GYS1 (GeneID 2997),-1,,inactive
DGKQ (GeneID 1609),2,,inactive
FLJ34433,0,,inactive
LOC390342,2,,inactive
PUM1 (GeneID 9698),1,,inactive
MYCBP2 (GeneID 23077),0,,inactive
ARX (GeneID 170302),0,,inactive
ZNF786 (GeneID 136051),-1,,inactive
LOC388297,1,,inactive
POLG2 (GeneID 11232),1,,inactive
LOC285658,1,,inactive
USP18 (GeneID 11274),0,,inactive
LOC392443,2,,inactive
LOC440621,0,,inactive
RPP38 (GeneID 10557),0,,inactive
SYCP2 (GeneID 10388),1,,inactive
ASB8 (GeneID 140461),2,,inactive
COQ6 (GeneID 51004),0,,inactive
LOC402123,3,9.13,active
AXL (GeneID 558),-1,,inactive
WSB2 (GeneID 55884),-4,-15.8,active
LOC442219,-2,,inactive
NR2F1 (GeneID 7025),2,,inactive
FLOT2 (GeneID 2319),-4,-9.25,active
CCL3L1 (GeneID 6349),2,,inactive
OR10R2 (GeneID 343406),2,,inactive
TXNRD2 (GeneID 10587),-1,,inactive
NACA (GeneID 4666),-2,,inactive
NSMAF (GeneID 8439),-2,,inactive
PPIAP58 (GeneID 126170),0,,inactive
MAP3K14 (GeneID 9020),2,,inactive
LOC440397,0,,inactive

Active calls, among the entries above:
target,summed siRNA score for cisplatin death,change in cisplatin death versus control (percentage points),call
GUCA1A (GeneID 2978),-3,-6.71,active
ACHE (GeneID 43),-3,-9.41,active
BAIAP3 (GeneID 8938),-3,-2.3,active
LOC402123,3,9.13,active
WSB2 (GeneID 55884),-4,-15.8,active
FLOT2 (GeneID 2319),-4,-9.25,active

Next reagents:
target,summed siRNA score for cisplatin death,change in cisplatin death versus control (percentage points),call
MYCLP1 (GeneID 4611),-2,,inactive
KIZ (GeneID 55857),-3,-8.21,active
SPON2 (GeneID 10417),0,,inactive
SLC5A4 (GeneID 6527),-1,,inactive
SMURF1 (GeneID 57154),-1,,inactive
PCCA (GeneID 5095),-2,,inactive
LOC440978,0,,inactive
ANXA13 (GeneID 312),0,,inactive
HOXC9 (GeneID 3225),-1,,inactive
TRAPPC4 (GeneID 51399),0,,inactive
RAB21 (GeneID 23011),1,,inactive
PARD3B (GeneID 117583),0,,inactive
FAM230I (GeneID 388882),3,13.5,active
P4HA3 (GeneID 283208),-1,,inactive
LOC391667,1,,inactive
PDHA1 (GeneID 5160),-2,,inactive
LOC442669,0,,inactive
FBXO40 (GeneID 51725),0,,inactive
KDM4B (GeneID 23030),0,,inactive
RPE65 (GeneID 6121),-2,,inactive
SCN11A (GeneID 11280),1,,inactive
MYOG (GeneID 4656),-1,,inactive
DYNLT3 (GeneID 6990),0,,inactive
SLC25A43 (GeneID 203427),0,,inactive
LMTK1 (GeneID 9625),1,,inactive
WASF1 (GeneID 8936),0,,inactive
CHEK2 (GeneID 11200),0,,inactive
